# Screening data

The results are deposited in PubChem (AID1159506; NCATS, 2015).

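Luminescence from an EWS-FLI1 target-promoter (NR0B1) reporter, set against a CMV-promoter reporter, two days after silencing single genes in TC32 Ewing sarcoma cells.
Each siRNA was applied at 20 nM.
A z-score of the log NR0B1-over-CMV signal, less the median of siRNAs with the same seed; more negative means a stronger specific loss of the NR0B1 reporter.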

This is part of the screen; most of the strongest results are not listed here.
Sequences are the guide (antisense) strand, without overhang.

{"sequence": "UUAGUACUUGUAUUGCUUG", "target gene": "MEIS2", "seed-corrected z-score": "-0.2811"}
{"sequence": "AUCUGUGAGAUGAAAGGGC", "target gene": "ASNA1", "seed-corrected z-score": "0.1733"}
{"sequence": "AGCAUGGCCAUAAAUUGGC", "target gene": "LRRC3C", "seed-corrected z-score": "-1.589"}
{"sequence": "AACUGGACGAUGACAAUCU", "target gene": "ATP2B3", "seed-corrected z-score": "-1.172"}
{"sequence": "UCAAAGUACCGGAUGCUGG", "target gene": "CORO1B", "seed-corrected z-score": "-0.1854"}
{"sequence": "AAUCGUUCUUGUAACAUCG", "target gene": "SPTBN1", "seed-corrected z-score": "0.6328"}
{"sequence": "ACACUUUUGGGAAGCCUGG", "target gene": "S100P", "seed-corrected z-score": "-0.7567"}
{"sequence": "AUACUAUCAUUUCUUUUGC", "target gene": "TMEM144", "seed-corrected z-score": "-0.3984"}
{"sequence": "UGAUAUACUUGUUAUAGAG", "target gene": "STAMBP", "seed-corrected z-score": "-0.2568"}
{"sequence": "AAAAGAACCGUAGAAGAUG", "target gene": "LOC729968", "seed-corrected z-score": "-0.1051"}
{"sequence": "UUCACGAUCGAGGUCUCCC", "target gene": "RASA4", "seed-corrected z-score": "-0.09207"}
{"sequence": "UGCACUAUGAUCAAAAUGG", "target gene": "C1orf100", "seed-corrected z-score": "0.363"}
{"sequence": "UCCUCGUACCCUAAAAGCC", "target gene": "ZFP82", "seed-corrected z-score": "0.1007"}
{"sequence": "UAAAGGCUCUGUUGACUUC", "target gene": "BOP1", "seed-corrected z-score": "1.301"}
{"sequence": "UUUCAGGUGACUGCGCUUC", "target gene": "PROC", "seed-corrected z-score": "-0.2945"}
{"sequence": "UUGGUGUCCUGGUAGAUUC", "target gene": "POMGNT2", "seed-corrected z-score": "0.158"}
{"sequence": "UUUUCUUGUACACUUUGCC", "target gene": "CFAP74", "seed-corrected z-score": "1.555"}
{"sequence": "UCUCUUCCAACAGAGACUU", "target gene": "SGF29", "seed-corrected z-score": "-0.3046"}
{"sequence": "AAAUGAUCAAGAUCAGCAG", "target gene": "RNF169", "seed-corrected z-score": "-0.7537"}
{"sequence": "UUCAUAACCUGAUAUAGCC", "target gene": "SLC27A6", "seed-corrected z-score": "0.3926"}
{"sequence": "UUCUCAAACAGGGCAGAGC", "target gene": "KTI12", "seed-corrected z-score": "0.6174"}
{"sequence": "UACCUACCGAUGUAUCUCC", "target gene": "IDUA", "seed-corrected z-score": "0.3249"}
{"sequence": "UUUGGAGCCAACGAGCUGC", "target gene": "CLDN9", "seed-corrected z-score": "-0.2685"}
{"sequence": "UUCUGCUUGCAUAUCUUCC", "target gene": "RNF112", "seed-corrected z-score": "-0.5284"}
{"sequence": "UGUCCUGACGCGAUCACGU", "target gene": "ARL8A", "seed-corrected z-score": "0.7903"}
{"sequence": "UUCACCAACAUUGUGAGUG", "target gene": "SAGE2P", "seed-corrected z-score": "0.1998"}
{"sequence": "UAAGGGUCAUUGAUACAGC", "target gene": "CLCN6", "seed-corrected z-score": "-1.007"}
{"sequence": "UCUGGGCAGAUUCAGAUUG", "target gene": "HLA-DQB1", "seed-corrected z-score": "-0.1152"}

Repeated from the top, 3 entries:

Sequence	target gene	seed-corrected z-score
UUAGUACUUGUAUUGCUUG	MEIS2	-0.2811
AUCUGUGAGAUGAAAGGGC	ASNA1	0.1733
AGCAUGGCCAUAAAUUGGC	LRRC3C	-1.589